# Laboratory results: PubChem BioAssay AID2284379 (EPA ToxCast)
# This is a selection; strong and weak results do not stand in their true shares. Inconclusive results are not listed. Calls of active or inactive are those of the source. How the source made its calls: active means hit-call score of the fitted dose curve at least 0.9, where 1 is the maximum; inconclusive means response in the unintended direction; inactive means score below 0.9.
# Assay: ATG_M_32_EcoTox2: Attagene TRANS-FACTORIAL EcoTox-2 HepG2 Assay for M32 Transcription Factor (Internal Marker)
# Experimental: ATG_EcoTox2 is a cell-based, multiplexed assay created by modifying the existing Attagene TRANS-FACTORIAL system to include a panel of nuclear receptors from some or all the following species: human (Homo sapiens), african clawed frog (Xenopus laevis), rainbow trout (Oncorhynchus mykiss), japanese medaka (Oryzias latipes), and zebrafish (Danio rerio). The ECOTOX2-FACTORIAL format uses HepG2, a human liver cell line, with measurements taken at 24 hours after chemical dosing in a 24-well plate. ATG_M_32_EcoTox2 is one of 29 assay components calculated in the ATG_EcoTox2 assay. It is designed to make measurements of mRNA induction, a form of inducible reporter, as detected with fluorescence intensity signals by Reverse transcription polymerase chain reaction (RT-PCR) and Capillary electrophoresis technology.The assay endpoint ATG_M_32_EcoTox2 was analyzed in the positive analysis fitting direction relative to DMSO as the negative control and baseline of activity. Using a type of inducible reporter, measures of mRNA for gain-of-signal activity can be used to understand the background control at the transcription factor-level as they relate to the gene. Furthermore, this assay endpoint can be referred to as a secondary readout, because this assay has produced multiple assay endpoints where this one serves a background control function. […]
structure (smiles),measurement,value
C[C@]12C=CC(=O)C=C1CC[C@@H]1[C@@H]2C(=O)C[C@@]2(C)[C@H]1CC[C@]2(O)C(=O)CO,outcome,inactive
